These results are taken from PubChem BioAssay AID1347426 (Functional Genomics Laboratory (NCATS/FGL), 2020).

Screen size: about 31,000 sequences; about 1,400 (4.5%) were called active.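 The calls were made as follows: active = median seed-adjusted z-score above 1 or below -1; inactive = the rest.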 The list shows a part of the results.

The experiment can be described thus: Novel Modifiers of Survival Motor Neuron (SMN) Protein: Gene Identification via Genome-wide siRNA Screen.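 Also: luminescence tracks full-length SMN protein made from the SMN2 reporter.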 To be noted: HEK293T SMN2-luciferase reporter, siRNA knockdown, 72 h; actives lie on both sides. The method in brief:
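Luciferase signal, proportional to full-length SMN made from an SMN2 cDNA reporter in stable HEK293T cells, was read 72 h after siRNA reverse transfection. Values were expressed as MAD scores after non-targeting-control normalization and log10 conversion; seed analysis flagged off-targets.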
On the technique in general: A reporter such as luciferase makes a cellular process visible.
In the case of GCAACGUGGACAUUGGUGATT against SOX10, the median seed-adjusted z-score was inactive: -0.255.

Regarding GACAGAAGUUUUGAGUGAATT against RICH2, the median seed-adjusted z-score was inactive: 0.4.

In the case of GGAGUUCACUACUGGAUUUTT against EFCAB4B, the median seed-adjusted z-score was inactive: 0.

With CGACUUCAUAAUUACGCAATT against ALS2, the median seed-adjusted z-score was inactive: 0.

Take GAAAGAUUCCGAACAAUCATT against RAB8B: the median seed-adjusted z-score was inactive: -0.259.

With GAAUGGAGAGAGAAUUGAATT against B2M, the median seed-adjusted z-score was inactive: -0.367.

In the case of CAGCUGGACGGGAAAGUGATT against GZMM, the median seed-adjusted z-score is inactive: -0.17.

In the case of CAGACAAGCUGAUCCGCAUTT against TGM5, the median seed-adjusted z-score was inactive: 0.0181.

Consider CACCCACGAUGAGCACUGUTT against PHF21B, for which the median seed-adjusted z-score was inactive: 0.327.

Take CAUGAUCGAUUUGAUUAUATT against CYP2C18: the median seed-adjusted z-score was inactive: 0.229.

Take GGCCUUCCAUCAUAGUUCATT against ZNF311: the median seed-adjusted z-score was inactive: 0.196.

With GGAUGACUUUUCUCGUCUATT against SAP30BP, the median seed-adjusted z-score was inactive: -0.257.

With GGAGCAGAUUAAGCGAGUATT against NRAS, the median seed-adjusted z-score was inactive: -0.581.

Take GAGCAGGGCUAAAUAAAGATT against AANAT: the median seed-adjusted z-score is inactive: -0.168.

CUCCUGAUGUUGGAUAUAATT against PITRM1: the median seed-adjusted z-score is inactive: -0.0959.

As for GGCGGAAAUUCGUACAGAUTT against MGAT5, the median seed-adjusted z-score is inactive: 0.16.

For the sequence GGAUGAUGAGUACUCUGAATT against COL7A1, the median seed-adjusted z-score is active: 1.08.

Take GGACUUAAACUGCUUACAATT against SSRP1: the median seed-adjusted z-score was inactive: -0.31.

For GGCCUUUACUCGAGUCAAUTT against ZNF331, the median seed-adjusted z-score is inactive: 0.415.

With CCACAAUGAGAGUACCUGUTT against AGT, the median seed-adjusted z-score is inactive: -0.121.

With GAAGAGGAGGUUUAAGCAATT against RASL11B, the median seed-adjusted z-score is inactive: 0.507.

As for ACCUCGCUGUGUCACUCAUTT against ZDHHC12, the median seed-adjusted z-score is inactive: -0.0312.

For CUGUUUGACUUCAUCGAGATT against COPG, the median seed-adjusted z-score is inactive: 0.175.

In the case of GGAUGUGAGAAUUCGGAAATT against PHC3, the median seed-adjusted z-score is inactive: -0.204.

Regarding CAAACUCUACAUCACCUUUTT against GPR32, the median seed-adjusted z-score was active: -1.2.

Regarding GGAUGAAAAACAGAUUACATT against CD200R1, the median seed-adjusted z-score was inactive: 0.0679.

In the case of ACACUUUGUUCAACCUGCATT against EVX2, the median seed-adjusted z-score was inactive: 0.181.

Take GCUGCGUUUCUACAACAAATT against SLC37A3: the median seed-adjusted z-score was inactive: 0.246.

Take CACUUGGACUAGCUCAAUATT against THRB: the median seed-adjusted z-score is inactive: 0.324.

Consider GAGAAAUCGUGCUCAGUUATT against CNOT8, for which the median seed-adjusted z-score was inactive: 0.375.

As for GUAUUUCGAGUAAGUCUAATT against TTPA, the median seed-adjusted z-score is inactive: -0.208.

Take CCAUCAACACUGAAUUGCATT against SEC22B: the median seed-adjusted z-score is inactive: -0.106.

For the sequence GAAAACCAAUCUAAACAUUTT against ZNF33A, the median seed-adjusted z-score was inactive: 0.0628.

CAUUAGCAGUUGUCCCGUUTT against P2RY10: the median seed-adjusted z-score was inactive: -0.432.

Take CCGCAGCAUCUAUUUCUCATT against MPG: the median seed-adjusted z-score is inactive: -0.0888.

Take CUCACAACAAAUUACUUAATT against CYP2C9: the median seed-adjusted z-score was inactive: 0.246.

Take GGGUCUAUAUGCAUCCGGATT against TBR1: the median seed-adjusted z-score was inactive: -0.388.

As to CAACCGAAAUUUGAAAGAATT against SOX13, the median seed-adjusted z-score is inactive: 0.867.

Take GACCUUCAGCUAUCACUCUTT against ZNF80: the median seed-adjusted z-score was inactive: 0.906.

UCCUGACCGUCAUAGAGCATT against NEDD9: the median seed-adjusted z-score is inactive: 0.

Consider CUACGACACGGAUCAAGGATT against FN3KRP, for which the median seed-adjusted z-score is inactive: 0.00247.

For the sequence GGCUGAUUUUGCAGAGUUATT against PRCP, the median seed-adjusted z-score was inactive: -0.481.

On to CAAGAUCCAUAAACUUUUATT against TSSK1B, for which the median seed-adjusted z-score was inactive: -0.169.

As to CCAAAGACUCCAUCCAGAATT against DCI, the median seed-adjusted z-score is inactive: 0.469.

With ACAUCAUCUCAGUGGUUUATT against RNASE8, the median seed-adjusted z-score is inactive: 0.00771.

As for GUUAUGCACUUUACCCUUUTT against ARL15, the median seed-adjusted z-score was inactive: -0.944.

For CCACAAGCGUACUCAUACATT against ZIC5, the median seed-adjusted z-score was inactive: 0.

Turning to UAGACGUCUUUUCCCGAUATT against S100P, the median seed-adjusted z-score was inactive: -0.00831.

For CCGGUCAUGUCCAAAGUAATT against HDAC1, the median seed-adjusted z-score was inactive: -0.61.

In the case of CUACCCAACAAGAACCAGATT against ECEL1, the median seed-adjusted z-score is inactive: -0.301.

With AGGAUUACCUCGCCCUGAATT against HLA-G, the median seed-adjusted z-score is inactive: 0.0348.

For the sequence GUGAUACCCAAGAAACAUATT against HINT1, the median seed-adjusted z-score is inactive: 0.873.

Consider CCAACCCAACACUAACUAATT against PEX13, for which the median seed-adjusted z-score was inactive: 0.

As for CUGUUGAAAUGUAAAACGATT against VNN1, the median seed-adjusted z-score was inactive: 0.549.

Regarding CCACACCAGUCAGAGUCAATT against ZNF497, the median seed-adjusted z-score is inactive: -0.33.

As for CAGUGCUGUUAGAAUAAAATT against ZNHIT1, the median seed-adjusted z-score was inactive: -0.497.

For the sequence CGUCGUUCAGCAUCGAGAATT against FOXD3, the median seed-adjusted z-score was inactive: 0.224.

With CCAAGGAGCUUACUAUGGATT against SETDB2, the median seed-adjusted z-score is inactive: 0.417.

For GCACCUUCAUCGCAACAAUTT against AATK, the median seed-adjusted z-score is inactive: -0.621.

As for GAUAGCAACUGAAAACGGATT against SVOP, the median seed-adjusted z-score was inactive: 0.

For the sequence GUGUCUUCAUGGUCAACAATT against HTR4, the median seed-adjusted z-score is inactive: 0.444.

With CAAACUUCCAGGACUGCUATT against ABCF3, the median seed-adjusted z-score was inactive: 0.0759.

For the sequence ACAGAGACCUGAAAUCCGATT against PINK1, the median seed-adjusted z-score is inactive: 0.192.

On to GCACUAUAUGAAUACGCAATT against AUP1, for which the median seed-adjusted z-score was inactive: 0.305.

In the case of CCUUCAAUCACCGACCUUATT against SYNJ2, the median seed-adjusted z-score is inactive: 0.0202.

For the sequence GGCUUACAAUGACAAGAUUTT against HECW2, the median seed-adjusted z-score is inactive: 0.38.

CAAGUAUCGUGGAUCAAAATT against CD1E: the median seed-adjusted z-score was inactive: -0.133.

Turning to AGAUCAAGUUUGCCCUAAATT against HDGF2, the median seed-adjusted z-score is inactive: 0.

Regarding CAGCUAUUCGGAGUCCAAATT against PVR, the median seed-adjusted z-score was inactive: -0.324.

GGACCUCAAAGUUGUCUAUTT against AP1S1: the median seed-adjusted z-score was active: -1.04.

With GCUGGAUAUUCUCACAAUATT against PDE4B, the median seed-adjusted z-score was inactive: 0.546.

Consider GCGUCGUUCAUGCUCUAAATT against FGA, for which the median seed-adjusted z-score is inactive: 0.267.

As to CCCUUACCAUGGAUAGCAATT against BDNF, the median seed-adjusted z-score was inactive: 0.

As for CCAGAGUCACGGUCGAUCATT against PGPEP1, the median seed-adjusted z-score was inactive: -0.0356.

Take CGAGUGAGGUGUACAUUGCTT against CAPN10: the median seed-adjusted z-score was inactive: 0.364.

Regarding ACAUCUUCCUUAUUGUGGATT against HCN2, the median seed-adjusted z-score was inactive: 0.

In the case of GUAUUACCAGAGACCCAUATT against CYP11A1, the median seed-adjusted z-score is inactive: 0.0202.

Consider CCAUCACCUAUGCUAUUCATT against LHCGR, for which the median seed-adjusted z-score is inactive: -0.152.

For the sequence GAGUCCUAUUACCAGCUCATT against SRM, the median seed-adjusted z-score was inactive: 0.

As to UGAGAUAACUCACCACUGUTT against CDC42, the median seed-adjusted z-score was inactive: -0.0938.

Take GGUCCCUGUUGAGAAACGATT against TOP1: the median seed-adjusted z-score is inactive: 0.0303.

On to CCAUCAUCGUGAACAUCAUTT against SYT7, for which the median seed-adjusted z-score was inactive: -0.762.

As to GGAUAUUACUUUCGUGUAATT against MSH2, the median seed-adjusted z-score was inactive: 0.

In the case of CUUGGAUCCUCACACCAAATT against NID2, the median seed-adjusted z-score is inactive: 0.283.

Turning to CAAUGAGUCAGAUAUCGAATT against WNK1, the median seed-adjusted z-score is inactive: -0.121.

In the case of CCGUGUUAUGGAUCAAUGATT against DHX40, the median seed-adjusted z-score was inactive: -0.75.

Take UGAAUGCUGUAGUCCAUUATT against GPR182: the median seed-adjusted z-score was inactive: -0.136.

Turning to GGUGGAAUACUAUCCAGUUTT against COL12A1, the median seed-adjusted z-score is inactive: 0.00422.

As to CGGGCACAAUUAUCUCAGATT against SLC9A3, the median seed-adjusted z-score is inactive: 0.422.

In the case of GCAUGGAGCUAGCUGUGGATT against LTK, the median seed-adjusted z-score was inactive: -0.0881.

On to GGAGAGACAAUGACCAAGATT against TRPS1, for which the median seed-adjusted z-score is inactive: -0.125.

Turning to GGACUAUCAGGAUAACAAATT against EIF1AY, the median seed-adjusted z-score was inactive: 0.00168.

Regarding GGACUUAAGACAAUAGAGATT against SPATA5L1, the median seed-adjusted z-score was inactive: 0.252.

For CCACGUAAAUAAGACCUAUTT against GUCY2C, the median seed-adjusted z-score is inactive: -0.0181.

Regarding UCUGUUCACUGGACAGCAATT against TRPM5, the median seed-adjusted z-score was inactive: -0.0565.

On to CGACAUAGAUGACGAAAAATT against PABPC5, for which the median seed-adjusted z-score is inactive: -0.428.

CAUCCUCAUUCGAAAGUUUTT against PDCD6: the median seed-adjusted z-score was inactive: 0.325.

With GCUAUAAACUCAACCCGAATT against PXDN, the median seed-adjusted z-score was inactive: 0.771.

On to CAGAAGUUGUGCAAUCCAATT against ADAM32, for which the median seed-adjusted z-score was active: 1.75.

Regarding CAGCCGCUCUCGUCAAUGUTT against GGTLC2, the median seed-adjusted z-score is inactive: -0.288.

Take GGACUUUCCUGGAUCCUAUTT against ADAM30: the median seed-adjusted z-score was inactive: 0.0576.

With UGAUAUCUGUGGGAUCAUUTT against IKZF1, the median seed-adjusted z-score was inactive: -0.298.

Take GAAUAAUGACGUAUUGUGATT against SNCA: the median seed-adjusted z-score is inactive: 0.36.

GCAACGAGUUCAACCUGGATT against RAB11B: the median seed-adjusted z-score was inactive: -0.857.

Turning to GGAGCUUCAGAUGAAGAUATT against DNAJB4, the median seed-adjusted z-score is inactive: -0.12.

Turning to GCACAGGACUUCUAUGAGATT against PHKG1, the median seed-adjusted z-score is inactive: -0.153.

Regarding GGAAAUGUUUGAGUUUUCATT against PDX1, the median seed-adjusted z-score was inactive: 0.

UGAUGAUGCUUUUAAGACATT against SLC6A15: the median seed-adjusted z-score is inactive: 0.0939.
